Experimental data as given in patent US9428459B2, “Difluoromethyl-nicotinic- tetrahydronaphtyl carboxamides” (BAYER CROPSCIENCE AG, priority 2012, dated 2016).
Some of these results come from one statement about several compounds together.

Assays:
[1] = tested on: Alternaria brassicae; test: In vivo preventive test on Alternaria brassicae (leaf spot on radish); settings: dose 500 ppm, radish plants, preventive spray, grading 6 days after contamination
Protocol: Radish plants (“Pernod Clair” variety), sown in starter cups on a 50/50 peat soil-pozzolana substrate and grown at 17° C., are treated at the cotyledon stage by spraying with the active ingredient prepared as described above. Plants, used as controls, are treated with the mixture of acetone/tween/DMSO/water not containing the active material. After 24 hours, the plants are contaminated by spraying the cotyledons with an aqueous suspension of Alternaria brassicae spores (50 000 spores per ml). The spores are collected from a 15-day-old culture. The contaminated radish plants are incubated at 20° C. and at 100% relative humidity. Grading (% of efficacy) is carried out 6 days after the contamination, in comparison with the control plants.

[2] = tested on: Botrytis cinerea; test: In vivo preventive test on Botrytis cinerea (grey mould); settings: dose 500 ppm, gherkin plants, preventive spray, grading 4 to 5 days after contamination
Protocol: Gherkin plants (“Vert petit de Paris” variety), sown in starter cups on a 50/50 peat soil-pozzolana substrate and grown at 24° C., are treated at the Z11 cotyledon stage by spraying with the active ingredient prepared as described above. Plants, used as controls, are treated with the mixture of acetone/tween/DMSO/water not containing the active material. After 24 hours, the plants are contaminated by spraying the cotyledons with an aqueous suspension of cryopreserved Botrytis cinerea spores (50 000 spores per ml). The spores are suspended in a nutrient solution composed of 10 g/L of PDB, 50 g/L of D-Fructose, 2 g/L of NH4NO3 and 1 g/L of KH2PO4. The contaminated gherkin plants are incubated at 17° C. and at 90% relative humidity. Grading (% of efficacy) is carried out 4 to 5 days after the contamination, in comparison with the control plants.

[3] = tested on: Puccinia recondita; test: In vivo preventive test on Puccinia recondita (brown rust on wheat); settings: dose 500 ppm, wheat plants, preventive spray, grading 12 days after contamination
Protocol: Wheat plants (“Scipion” variety), sown in starter cups on a 50/50 peat soil-pozzolana substrate and grown at 22° C., are treated at the 1-leaf stage (10 cm height) by spraying with the active ingredient prepared as described above. Plants, used as controls, are treated with the mixture of acetone/tween/DMSO/water not containing the active material. After 24 hours, the plants are contaminated by spraying the leaves with an aqueous suspension of Puccinia recondita spores (100 000 spores per ml). The spores are collected from an infected plant and are suspended in water containing 2.5 ml/l of Tween 80 at 10%. The contaminated wheat plants are incubated for 24 hours at 20° C. and at 100% relative humidity, and then for 10 days at 20° C. and at 70-80% relative humidity. Grading (% of efficacy) is carried out 12 days after the contamination, in comparison with the control plants.

[4] = tested on: Uromyces appendiculatus; test: In vivo preventive test on Uromyces appendiculatus (bean rust); settings: dose 500 ppm, bean plants, preventive spray, grading 11 days after contamination
Protocol: The active ingredients tested are prepared by homogenization in a mixture of acetone/tween/DMSO, and then diluted with water to obtain the desired active material concentration.
Bean plants (“Saxa” variety), sown in starter cups on a 50/50 peat soil-pozzolana substrate and grown at 24° C., are treated at the 2-leaf stage (9 cm height) by spraying with the active ingredient prepared as described above. Plants, used as controls, are treated with the mixture of acetone/tween/DMSO/water not containing the active material.
After 24 hours, the plants are contaminated by spraying the leaves with an aqueous suspension of Uromyces appendiculatus spores (150 000 spores per ml). The spores are collected from infected plants and are suspended in water containing 2.5 ml/l of Tween 80 at 10%. The contaminated bean plants are incubated for 24 hours at 20° C. and at 100% relative humidity, and then for 10 days at 20° C. and at 70-80% relative humidity.
Grading (% of efficacy) is carried out 11 days after the contamination, in comparison with the control plants.

[5] = tested on: Pyrenophora teres; test: In vivo preventive test on Pyrenophora teres (net blotch on barley); settings: dose 500 ppm, barley plants, preventive spray, grading 14 days after contamination
Protocol: Barley plants (“Plaisant” variety), sown in starter cups on a 50/50 peat soil-pozzolana substrate and grown at 22° C., are treated at the 1-leaf stage (10 cm height) by spraying with the active ingredient prepared as described above. Plants, used as controls, are treated with the mixture of acetone/tween/DMSO/water not containing the active material. After 24 hours, the plants are contaminated by spraying the leaves with an aqueous suspension of Pyrenophora teres spores (12 000 spores per ml). The spores are collected from a 12-day-old culture. The contaminated barley plants are incubated for 48 hours at 20° C. and at 100% relative humidity, and then for 12 days at 20° C. at 70-80% relative humidity. Grading (% of efficacy) is carried out 14 days after the contamination, in comparison with the control plants.

[6] = tested on: Septoria tritici; test: In vivo preventive test on Septoria tritici (leaf spot on wheat); settings: dose 500 ppm, wheat plants, preventive spray, grading 24 days after contamination
Protocol: Wheat plants (“Scipion” variety), sown in starter cups on a 50/50 peat soil-pozzolana substrate and grown at 22° C., are treated at the 1-leaf stage (10 cm height) by spraying with the active ingredient prepared as described above. Plants, used as controls, are treated with the mixture of acetone/tween/DMSO/water not containing the active material. After 24 hours, the plants are contaminated by spraying the leaves with an aqueous suspension of cryopreserved Septoria tritici spores (500 000 spores per ml). The contaminated wheat plants are incubated for 72 hours at 18° C. and at 100% relative humidity, and then for 21 days at 90% relative humidity. Grading (% of efficacy) is carried out 24 days after the contamination, in comparison with the control plants.

[7] = tested on: Sphaerotheca fuliginea; test: In vivo preventive test on Sphaerotheca fuliginea (powdery mildew on cucurbits); settings: dose 500 ppm, gherkin plants, preventive spray, grading 12 days after contamination
Protocol: Gherkin plants (“Vert petit de Paris” variety), sown in starter cups on a 50/50 peat soil-pozzolana substrate and grown at 24° C., are treated at the Z11 cotyledon stage by spraying with the active ingredient prepared as described above. Plants, used as controls, are treated with the mixture of acetone/tween/DMSO/water not containing the active material. After 24 hours, the plants are contaminated by spraying the cotyledons with an aqueous suspension of Sphaerotheca fuliginea spores (100 000 spores per ml). The spores are collected from infected plants. The contaminated gherkin plants are incubated at about 20° C. and at 70-80% relative humidity. Grading (% of efficacy) is carried out 12 days after the contamination, in comparison with the control plants.

## CC1CCC(C)(C)c2cccc(NC(=O)c3cccnc3C(F)F)c21 (stereo not shown) [Example 3]
[1]
  biological efficacy: ≥ 80%
[2]
  biological efficacy: ≥ 90%
[3]
  biological efficacy: ≥ 80%
[4]
  biological efficacy: ≥ 90%

## CC1(C)CCc2cccc(NC(=O)c3cccnc3C(F)F)c2C1 [Example 1, 2-(difluoromethyl)-N-(7,7-dimethyl-5,6,7,8-tetrahydronaphthalen-1-yl)nicotinamide]
[1]
  biological efficacy: ≥ 80%
[5]
  biological efficacy: ≥ 80%
[6]
  biological efficacy: ≥ 90%
[7]
  biological efficacy: ≥ 90%
[4]
  biological efficacy: ≥ 90%

## CCON=C1CCCc2c(NC(=O)c3cccnc3C(F)F)cccc21 [Example 16]
[4]
  biological efficacy: ≥ 80%
